The text below walks through data of article PMC12701574.

For this data set, the system named is MBP-GmZF-HD1. Description: EMSA. Conditions: LightShift Chemiluminescent EMSA kit; room temperature 30 min; 6% native PAGE, 0.5x TBE, 60 V, 1 h, 4 C; binding buffer, salt and pH not stated; recombinant protein; protein details: MBP; label: 5' biotin. For orientation: A gel shift assay detects complexes by their altered migration in electrophoresis.

The exact form of at least one protein or probe is not confirmed.

As to “TTAAACTTGTAATTCCCGTAT (double strand) [GmSPS17 promoter cis-element probe]”, the binding result is on record as “binds”.
